Here are results for seven sequences from patent US20130273596.

Chains of the proteins cited; added tags and fusions are not shown. Lines headed by an entry give the natural chain unless they say otherwise; changes in a name come on top.
UniProt P01103: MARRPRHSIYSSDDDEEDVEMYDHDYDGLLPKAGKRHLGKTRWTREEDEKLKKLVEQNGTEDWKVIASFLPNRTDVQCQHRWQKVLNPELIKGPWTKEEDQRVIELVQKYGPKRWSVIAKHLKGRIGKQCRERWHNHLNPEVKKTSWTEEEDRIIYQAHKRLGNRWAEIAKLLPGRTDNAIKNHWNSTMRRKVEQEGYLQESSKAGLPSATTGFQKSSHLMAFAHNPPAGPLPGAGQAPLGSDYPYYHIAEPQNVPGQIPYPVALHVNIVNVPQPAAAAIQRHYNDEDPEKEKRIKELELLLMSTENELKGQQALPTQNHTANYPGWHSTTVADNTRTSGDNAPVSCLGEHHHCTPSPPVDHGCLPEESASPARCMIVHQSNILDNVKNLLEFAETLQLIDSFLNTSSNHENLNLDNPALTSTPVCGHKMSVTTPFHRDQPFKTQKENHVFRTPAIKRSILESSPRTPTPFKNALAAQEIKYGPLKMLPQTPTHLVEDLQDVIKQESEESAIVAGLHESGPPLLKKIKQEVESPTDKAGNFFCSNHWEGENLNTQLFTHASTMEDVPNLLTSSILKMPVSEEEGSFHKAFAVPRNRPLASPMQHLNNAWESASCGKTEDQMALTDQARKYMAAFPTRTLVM

At least one result comes from cells or an extract, where the contact may be indirect. For some assays here: For at least one entry, the source does not settle the construct or the ends of the probe. For some assays here: A negative result means that nothing was seen under these conditions. For some assays here: Where a protein sequence is shown, tags need not be part of it.

The target of one data set is Ets1 (chicken) (UniProt P13474). The experiment in a line: EMSA. Conditions: outcompeted by excess cold probe; absent with control extract; protein in a lysate after overexpression; label: 5' biotin.
The target in data set [1] is T1, Ets1 (endogenous) (chicken) (UniProt P13474).
T1 sequence (looked up, limits assumed): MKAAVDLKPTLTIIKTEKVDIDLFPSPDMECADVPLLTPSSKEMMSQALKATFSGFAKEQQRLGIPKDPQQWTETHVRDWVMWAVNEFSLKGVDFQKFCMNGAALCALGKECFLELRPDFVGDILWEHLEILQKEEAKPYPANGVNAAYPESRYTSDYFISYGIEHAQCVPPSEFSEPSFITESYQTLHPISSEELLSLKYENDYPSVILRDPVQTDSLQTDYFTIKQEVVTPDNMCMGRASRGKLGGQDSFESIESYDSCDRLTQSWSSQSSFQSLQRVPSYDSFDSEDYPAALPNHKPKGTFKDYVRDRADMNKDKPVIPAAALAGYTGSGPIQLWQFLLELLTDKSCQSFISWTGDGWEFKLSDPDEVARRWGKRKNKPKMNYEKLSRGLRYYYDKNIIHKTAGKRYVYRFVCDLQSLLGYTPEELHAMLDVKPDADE
As to the kind of experiment: pull-down. Conditions: protein in an extract.

A further data set concerns the target cMyb (chicken) (UniProt P01103). The experiment in a line: EMSA. To be noted: outcompeted by excess cold probe; absent with control extract; protein in a lysate after overexpression; label: 5' biotin. In general terms: Mobility shift assays separate free from complexed probe on a gel.
Data set [2] deals with cMyb (endogenous) (chicken) (UniProt P01103). As to the kind of experiment: pull-down. To be noted: embryonic nuclear extract, 150 mM KCl, poly(dI-dC), RT; protein in an extract; label: 5' biotin.
The next data set deals with Sox9 (chicken) (UniProt P48434). The experiment in a line: EMSA. To be noted: outcompeted by excess cold probe; absent with control extract; protein in a lysate after overexpression; label: 5' biotin.
The target in data set [3] is T2, Sox9 (endogenous) (chicken) (UniProt P48434).
T2 sequence (looked up, limits assumed): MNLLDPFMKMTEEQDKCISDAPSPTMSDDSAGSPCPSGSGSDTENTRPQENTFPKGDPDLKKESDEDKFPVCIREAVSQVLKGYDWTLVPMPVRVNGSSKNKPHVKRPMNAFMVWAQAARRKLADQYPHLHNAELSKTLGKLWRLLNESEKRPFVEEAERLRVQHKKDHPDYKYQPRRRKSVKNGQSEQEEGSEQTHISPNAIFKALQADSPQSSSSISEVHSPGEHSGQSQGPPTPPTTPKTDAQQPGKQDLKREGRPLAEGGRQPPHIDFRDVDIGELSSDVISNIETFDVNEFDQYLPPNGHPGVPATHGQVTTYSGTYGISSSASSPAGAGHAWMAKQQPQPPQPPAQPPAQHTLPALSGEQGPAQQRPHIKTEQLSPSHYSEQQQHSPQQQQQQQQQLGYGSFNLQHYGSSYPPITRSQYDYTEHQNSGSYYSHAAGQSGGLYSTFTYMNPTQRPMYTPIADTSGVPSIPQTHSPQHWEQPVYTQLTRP
The experiment in a line: pull-down. To be noted: protein in an extract.

Setting [4] is: embryonic nuclear extract, 150 mM KCl, poly(dI-dC), RT, label: 5' biotin.
The mark [5] stands for this setting: scrambled control, specific binding stated, label: biotin.

“TGGCCAGAGAGGAAATTGGGGGTTT (double strand) [Sox10E2 M9]”: the binding result (with Ets1 (chicken); in data set [1] (setting [4])) was “binds” throughout.

Regarding “GCAATTTAACCTACAACTGCTGAGCTTGTA (double strand) [Sox10E2 M2]”, the binding result (in the data set with cMyb (chicken); in data set [2]) was “binds” in each case.

With “TCAGGGCACAAAGGCCCAACTGTCTAGGGGG (double strand) [Sox10E2 M11/12]”, the binding result (in the data set with Sox9 (chicken); in data set [3] (setting [4]); in data set [2]) was “binds” each time.

On to “ATGTCTACGTCGAGCGCGACGGCGA (double strand) [Ets1 Co]”, for which the binding result in data set [1] (setting [5]) is “no binding”.

Take “GGCGACTGTGCTTCCGGCTGGGGCAGTG (double strand) [Sox10E2 M4]”: in data set [1] (setting [4]), the binding result is reported as “binds”.

Consider “GGAGCAGGGAAACAATAGGTGATTT (double strand) [Sox10E2 M8]”, for which the binding result in data set [3] (setting [4]) is recorded as “binds”.

With “TACGGCAAGCTGTTCATCTGCACCA (double strand) [Sox9 Co]”, in data set [3] (setting [5]), the binding result is “no binding”.
